These results are taken from patent US7146204B2, “Method and apparatus for quantitatively evaluating a kidney” (Yeda Research and Development Co., Ltd., priority 2002, dated 2006).

Test [1] concerns rat kidney. In words: steady state diuresis 23Na MRI of corticomedullary sodium gradient. In kind it is in vivo. As to conditions: diuretic steady state. The procedure:
Materials and Methods—Animals: Studies were performed on female Lewis rats, 2–4 months old and weighing 250–300 g, that had free access to food and water. Before MRI scanning, the rats were anesthetized by an intraperitoneal injection of sodium pentobarbital at a dosage of 0.04 mg/g body wt. All animal protocols and maintenance procedures were in accordance with the guidelines of the Committee on Animals of the Weizmann Institute of Science, and were approved by this Committee.
Mannitol solution (20%, 1 ml) and saline solution (0.9% NaCl, 1 ml) were injected as a bolus into the tail vein. Only one diuretic was injected into each rat.
In vivo MRI: ^1H and ^23Na spectra and images were recorded at 200 and 53 MHz, respectively with a 4.7 T Biospec spectrometer (Bruker, Rheinstetten, Germany) using a home-built 3 cm double-tuned surface coil. […] 3D ^1H gradient echo images were recorded to localize the exact kidney position, using TE/TR of 6/30 ms FOV of 12×12×3.2 cm and a matrix of 256×256×32. For defining the regions of interest (ROI), 3D ^1H images were recorded with the same spatial resolution as that of the sodium images.
In the “steady state” studies, sodium images were recorded prior to injection of the diuretic (control measurement) and fifteen minutes after its injection. […]

Test [2] deals with rat kidney. The test can be described thus: dynamic 23Na MRI of renal sodium distribution after bolus injection of diuretic. It counts as in vivo. The conditions noted are these: dynamic study. The procedure: Materials and Methods—Animals: Studies were performed on female Lewis rats, 2–4 months old and weighing 250–300 g, that had free access to food and water. […] All animal protocols and maintenance procedures were in accordance with the guidelines of the Committee on Animals of the Weizmann Institute of Science, and were approved by this Committee. Diuretics: […] Only one diuretic was injected into each rat. […] Image analysis: Analysis of the kidney images was performed on selected regions of interest (ROIs) in the outer, median and inner parts of the kidney, representing the cortex, outer and inner medulla, respectively. The ROIs were defined on the corresponding coronal proton image recorded prior to the sodium images, at the same spatial resolution. The average digitized pixel intensity for each ROI was measured, and the sodium gradient was assessed by averaging the ratio of the sodium signal intensity between the inner and the outer medulla, and between the inner medulla and the cortex. The results present average values for the number of measured kidneys±standard error. […] In this analysis, the signal intensity in each pixel was measured from the cortex to the inner medulla along the corticomedullary axis. This yielded a graph of pixel signal intensity versus the distance of the pixel from the cortex. […]

With `NS(=O)(=O)c1cc(C(=O)O)c(NCc2ccco2)cc1Cl` [furosemide], in test [1], the “sodium concentration in the outer medulla compared to control” value is given as “decreased compared to control”. The “total increase in sodium concentration in the cortex” value in test [2] came to 27±1%.
